Tested on: Caco-2 cells (TC-7 clone)
Test: Caco-2 permeability
Type: in vitro ADME, human
Conditions: presence of cyclosporine A

| SMILES | Recovery A→B [%] | Recovery B→A [%] |
| --- | --- | --- |
| CC(C)NCC(O)COc1cccc2[nH]ccc12 (stereo not shown) [Pindolol] | 104 | 95.5 |
| CC(C)NCC(O)COc1cccc2ccccc12 (stereo not shown) [Propranolol] | 92.4 | 85.6 |

— paper PMC10746753 (Pharmaceutical Research, 2023)
